Experimental data from publication PMC4949214.

Experiments:
[1] = target: T1, OsSAP1 fused with the GAL4 DNA binding domain (SAP1-BD) (rice (Oryza sativa ssp. indica cv. Pusa Basmati-1)) (UniProt A2Z2J6); test: two-hybrid; GAL4 system, yeast; activation of the LacZ reporter, quantitative β-galactosidase assay with ONPG as substrate
T1 sequence: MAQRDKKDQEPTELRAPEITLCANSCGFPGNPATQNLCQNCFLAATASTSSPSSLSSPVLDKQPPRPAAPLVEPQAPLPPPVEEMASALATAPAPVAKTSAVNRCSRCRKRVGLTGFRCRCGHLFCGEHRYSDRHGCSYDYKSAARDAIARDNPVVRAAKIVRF

[2] = target: T1, OsSAP1 fused with the GAL4 DNA binding domain (SAP1-BD) (rice (Oryza sativa ssp. indica cv. Pusa Basmati-1)); test: two-hybrid; GAL4 system, yeast AH109; BD baits (pGBKT7) co-transformed with AD clones (pGADT7-Rec); growth on SD/-His/-Leu/-Trp and SD/-Ade/-His/-Leu/-Trp
[3] = target: T2, AN1 domain of OsSAP1 fused with the GAL4 DNA binding domain (AN1-BD) (rice (Oryza sativa ssp. indica cv. Pusa Basmati-1)) (UniProt A2Z2J6); test: as above
T2 sequence: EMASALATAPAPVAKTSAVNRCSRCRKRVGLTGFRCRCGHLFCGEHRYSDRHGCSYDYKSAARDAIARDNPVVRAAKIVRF

[4] = target: T3, A20 domain of OsSAP1 fused with the GAL4 DNA binding domain (A20-BD) (rice (Oryza sativa ssp. indica cv. Pusa Basmati-1)) (UniProt A2Z2J6); test: as above
T3 sequence: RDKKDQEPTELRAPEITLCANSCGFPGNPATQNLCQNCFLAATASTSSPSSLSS

[5] = target: T4, linker region between A20 and AN1 domain of OsSAP1 fused with the GAL4 DNA binding domain (SAP1ΔA20ΔAN1-BD) (rice (Oryza sativa ssp. indica cv. Pusa Basmati-1)) (UniProt A2Z2J6); test: as above
T4 sequence: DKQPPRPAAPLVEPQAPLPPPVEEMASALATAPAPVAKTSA

Measured: binding

OsAMTR1 (aminotransferase) fused with the GAL4 activation domain (AMTR1-AD)
binds: all assays above

These are yes or no findings as the source states them, for the method shown. A result given as binding can be weak or reduced; the word gives no strength. Where a sequence is shown, tags or fusion partners need not be part of it.
